Source: PMC12548422
These are yes or no findings as the source states them, for the method shown. In cells and extracts the contact can be indirect. Some entries that bind do so weakly or less than the wild type.

Amino acid sequences for entries named in this document (tags omitted).
UniProt O14980: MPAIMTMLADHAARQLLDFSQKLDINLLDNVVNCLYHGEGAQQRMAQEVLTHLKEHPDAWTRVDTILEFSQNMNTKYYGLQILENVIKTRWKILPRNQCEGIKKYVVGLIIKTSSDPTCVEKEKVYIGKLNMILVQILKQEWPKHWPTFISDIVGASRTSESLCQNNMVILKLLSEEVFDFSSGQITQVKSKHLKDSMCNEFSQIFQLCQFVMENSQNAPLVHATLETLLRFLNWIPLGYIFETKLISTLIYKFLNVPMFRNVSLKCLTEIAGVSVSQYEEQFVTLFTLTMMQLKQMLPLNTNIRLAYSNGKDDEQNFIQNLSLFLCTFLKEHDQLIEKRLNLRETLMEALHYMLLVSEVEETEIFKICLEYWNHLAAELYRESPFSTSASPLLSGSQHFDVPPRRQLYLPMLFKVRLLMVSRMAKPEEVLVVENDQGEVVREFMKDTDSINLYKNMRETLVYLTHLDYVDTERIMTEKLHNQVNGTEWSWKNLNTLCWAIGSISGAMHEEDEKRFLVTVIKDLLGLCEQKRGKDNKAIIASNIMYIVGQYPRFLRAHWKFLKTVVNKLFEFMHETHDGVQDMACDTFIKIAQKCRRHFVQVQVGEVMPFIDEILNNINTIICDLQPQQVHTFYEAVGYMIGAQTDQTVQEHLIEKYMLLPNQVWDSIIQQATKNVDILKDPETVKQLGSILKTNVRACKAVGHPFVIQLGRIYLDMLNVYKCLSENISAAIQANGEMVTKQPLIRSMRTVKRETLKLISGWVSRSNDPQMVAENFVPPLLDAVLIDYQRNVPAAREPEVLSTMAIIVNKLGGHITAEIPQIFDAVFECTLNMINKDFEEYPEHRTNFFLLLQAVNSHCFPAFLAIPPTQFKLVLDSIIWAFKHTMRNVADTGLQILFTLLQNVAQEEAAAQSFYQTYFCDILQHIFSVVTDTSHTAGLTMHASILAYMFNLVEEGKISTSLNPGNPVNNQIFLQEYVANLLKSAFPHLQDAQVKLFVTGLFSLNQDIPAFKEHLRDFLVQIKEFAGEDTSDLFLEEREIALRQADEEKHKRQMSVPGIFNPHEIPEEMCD
UniProt Q13263: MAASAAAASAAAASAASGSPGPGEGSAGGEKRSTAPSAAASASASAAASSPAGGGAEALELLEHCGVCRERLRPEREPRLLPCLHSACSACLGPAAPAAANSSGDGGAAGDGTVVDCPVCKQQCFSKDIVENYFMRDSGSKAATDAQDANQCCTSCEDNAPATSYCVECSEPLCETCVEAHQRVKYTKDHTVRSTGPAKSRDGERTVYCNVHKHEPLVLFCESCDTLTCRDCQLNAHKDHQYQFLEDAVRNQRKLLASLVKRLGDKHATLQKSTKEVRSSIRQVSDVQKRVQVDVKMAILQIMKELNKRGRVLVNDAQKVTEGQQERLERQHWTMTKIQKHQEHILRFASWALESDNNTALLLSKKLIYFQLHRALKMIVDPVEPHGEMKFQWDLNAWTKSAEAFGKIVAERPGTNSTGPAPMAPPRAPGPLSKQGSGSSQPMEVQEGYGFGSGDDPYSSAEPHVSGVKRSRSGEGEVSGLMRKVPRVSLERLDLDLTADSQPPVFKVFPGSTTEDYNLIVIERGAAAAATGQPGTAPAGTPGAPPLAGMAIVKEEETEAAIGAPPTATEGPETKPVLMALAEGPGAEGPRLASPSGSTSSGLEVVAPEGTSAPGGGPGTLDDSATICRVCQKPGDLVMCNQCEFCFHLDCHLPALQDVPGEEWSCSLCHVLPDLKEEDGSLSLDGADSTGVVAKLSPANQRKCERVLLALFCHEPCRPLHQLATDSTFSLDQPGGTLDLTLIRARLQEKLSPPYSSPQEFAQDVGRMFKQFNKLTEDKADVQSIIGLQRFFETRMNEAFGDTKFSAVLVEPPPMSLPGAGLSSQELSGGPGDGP

Tests used:
[1] = target: Flag-CRM1 expressed in HEK-293T cells (UniProt O14980); assay: co-IP; HEK-293T transfected with Flag-CRM1; Co-IP with Flag antibodies; blot for Flag-CRM1 and TRIM28 (Fig. 4C)
[2] = target: Flag-TRIM28 (WT), full length (UniProt Q13263); assay: co-IP; HEK-293T transfected with Flag-TRIM28 (WT) or truncation mutants; Co-IP with Flag antibodies; blot for CRM1 (Fig. 4G)

| binding [1] | binding [2] | Substance |
| --- | --- | --- |
| binds | – | endogenous TRIM28 of HEK-293T cells (from UniProt Q13263 1-835) |
| – | binds | CRM1 co-precipitated with Flag-TRIM28 in HEK-293T cells (Fig. 4G) (from UniProt O14980 1-1071) |
